For 13 substances, binding results are on record in publication PMC3006391.

Amino acid sequences for entries named in this document (tags omitted). A change or cut given only in a name is not applied to a line headed by its entry. Residues count along the entry.
UniProt P21796: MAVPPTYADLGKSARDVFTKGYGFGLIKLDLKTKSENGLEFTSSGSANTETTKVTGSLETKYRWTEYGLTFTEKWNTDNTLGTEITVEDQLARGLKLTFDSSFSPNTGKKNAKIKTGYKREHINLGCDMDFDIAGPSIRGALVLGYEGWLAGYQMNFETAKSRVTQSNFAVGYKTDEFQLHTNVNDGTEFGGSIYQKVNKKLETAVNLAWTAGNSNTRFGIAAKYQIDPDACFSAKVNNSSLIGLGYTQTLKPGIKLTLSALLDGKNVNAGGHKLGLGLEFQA
UniProt O75964: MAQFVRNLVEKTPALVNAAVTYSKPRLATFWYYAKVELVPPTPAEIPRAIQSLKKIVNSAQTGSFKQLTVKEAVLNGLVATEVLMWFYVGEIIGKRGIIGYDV
UniProt P27824, residues 21-592: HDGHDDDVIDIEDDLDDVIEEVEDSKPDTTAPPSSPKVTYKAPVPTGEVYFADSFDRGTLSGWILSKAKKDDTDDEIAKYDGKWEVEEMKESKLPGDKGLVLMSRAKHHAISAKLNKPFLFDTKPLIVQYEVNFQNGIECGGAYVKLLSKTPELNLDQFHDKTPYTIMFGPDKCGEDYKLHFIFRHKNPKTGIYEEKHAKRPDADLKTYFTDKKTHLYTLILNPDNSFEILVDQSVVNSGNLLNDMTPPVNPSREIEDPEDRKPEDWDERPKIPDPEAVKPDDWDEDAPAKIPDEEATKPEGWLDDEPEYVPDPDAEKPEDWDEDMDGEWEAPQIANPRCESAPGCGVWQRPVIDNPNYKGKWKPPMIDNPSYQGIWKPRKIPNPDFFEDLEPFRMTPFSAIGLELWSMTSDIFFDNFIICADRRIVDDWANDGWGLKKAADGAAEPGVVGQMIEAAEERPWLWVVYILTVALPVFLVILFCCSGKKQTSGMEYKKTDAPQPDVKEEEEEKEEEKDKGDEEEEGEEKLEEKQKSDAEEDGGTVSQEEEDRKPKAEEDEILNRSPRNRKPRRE
UniProt P51149: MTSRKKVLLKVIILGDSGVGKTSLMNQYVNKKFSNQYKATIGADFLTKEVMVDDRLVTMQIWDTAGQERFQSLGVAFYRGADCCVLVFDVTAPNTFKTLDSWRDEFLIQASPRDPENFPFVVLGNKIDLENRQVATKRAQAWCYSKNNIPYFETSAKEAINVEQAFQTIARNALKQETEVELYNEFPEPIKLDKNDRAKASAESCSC
UniProt O75396: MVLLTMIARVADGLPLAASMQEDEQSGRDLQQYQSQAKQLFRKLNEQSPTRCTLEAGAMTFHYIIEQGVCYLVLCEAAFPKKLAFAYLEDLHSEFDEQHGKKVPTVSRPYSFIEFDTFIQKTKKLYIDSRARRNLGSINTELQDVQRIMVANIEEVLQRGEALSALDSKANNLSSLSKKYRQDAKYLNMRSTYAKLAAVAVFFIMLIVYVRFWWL
UniProt P13164: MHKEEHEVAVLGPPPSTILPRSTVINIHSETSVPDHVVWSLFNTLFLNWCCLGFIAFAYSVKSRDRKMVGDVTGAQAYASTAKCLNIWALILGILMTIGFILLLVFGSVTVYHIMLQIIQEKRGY
UniProt P25705, residues 44-553: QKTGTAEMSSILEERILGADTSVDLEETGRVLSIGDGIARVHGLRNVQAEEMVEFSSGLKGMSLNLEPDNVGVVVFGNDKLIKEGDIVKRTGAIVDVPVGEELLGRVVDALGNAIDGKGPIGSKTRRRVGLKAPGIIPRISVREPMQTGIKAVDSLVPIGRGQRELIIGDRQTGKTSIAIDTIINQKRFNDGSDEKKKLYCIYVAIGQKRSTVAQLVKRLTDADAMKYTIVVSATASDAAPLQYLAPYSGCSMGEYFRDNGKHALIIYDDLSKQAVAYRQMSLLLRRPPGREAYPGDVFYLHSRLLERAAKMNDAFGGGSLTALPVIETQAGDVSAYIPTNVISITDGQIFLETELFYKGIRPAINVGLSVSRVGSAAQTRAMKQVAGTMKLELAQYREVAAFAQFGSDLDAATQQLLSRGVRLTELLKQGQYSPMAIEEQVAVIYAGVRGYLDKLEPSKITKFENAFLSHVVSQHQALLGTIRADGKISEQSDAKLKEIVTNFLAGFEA
UniProt P60468: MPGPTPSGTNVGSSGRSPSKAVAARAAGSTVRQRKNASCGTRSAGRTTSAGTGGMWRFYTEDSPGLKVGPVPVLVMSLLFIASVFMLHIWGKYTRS
UniProt O43169: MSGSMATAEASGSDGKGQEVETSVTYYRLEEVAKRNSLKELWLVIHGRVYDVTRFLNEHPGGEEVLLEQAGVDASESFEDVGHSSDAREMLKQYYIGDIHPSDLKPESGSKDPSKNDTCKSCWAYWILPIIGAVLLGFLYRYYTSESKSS
UniProt Q15836: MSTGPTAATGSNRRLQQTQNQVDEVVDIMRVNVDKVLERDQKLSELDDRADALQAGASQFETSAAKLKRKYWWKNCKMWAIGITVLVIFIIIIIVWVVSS

Results are given in words; binding and its absence hold for the method and conditions named. Binding seen in cells or lysates may run through a third protein. Here binding means that the protein was enriched with, or labelled near, the bait; the list need not be complete.

In this assay the target is TAP-Bcl-xL (UniProt Q07817). The assay is described as follows: affinity purification with mass spectrometry; Tandem Affinity Purification from CHAPS (1%) extracts of total membranes of HeLa cells stably expressing TAP-Bcl-xL: IgG agarose, TEV cleavage, calmodulin resin, EGTA elution; most abundant Coomassie bands cut and identified by LC-MS/MS; TAP-stop cells as control.
As for “Voltage-dependent anion channel 1 (from UniProt P21796 1-283)”, the binding result is recorded as “binds”.

As for “Prohibitin 2 (from UniProt Q99623-1 1-299)”, the binding result was “binds”.

Regarding “ATP synthase g subunit (from UniProt O75964 1-103)”, the binding result is “binds”.

Take Calnexin (from UniProt P27824-1 21-592): the binding entry is “binds”.

For “RAB7A, member RAS oncogene family (from UniProt P51149 1-207)”, the binding entry was “binds”.

Consider “Vesicle trafficking protein sec22b (from UniProt O75396 1-215)”, for which the binding result is on record as “binds”.

As to “Interferon induced transmembrane protein 1 (from UniProt P13164 1-125)”, the binding result is listed as “binds”.

On to “ATP synthase alpha subunit (from UniProt P25705-1 44-553)”, for which the binding result is “binds”.

“Solute carrier family 3, member 2 (from UniProt P08195 1-529)”: the binding result is reported as “binds”.

As to “ATP synthase beta subunit (from UniProt P06576 48-529)”, the binding result is listed as “binds”.

As for “SEC61 beta subunit (from UniProt P60468 1-96)”, the binding result is on record as “binds”.

Consider “Cytochrome b5 type B (from UniProt O43169)”, for which the binding entry was “binds”.

On to “Vesicle associated membrane protein 3 (from UniProt Q15836 1-100)”, for which the binding result is given as “binds”.
